Data taken from PubChem BioAssay AID493014 (National Center for Advancing Translational Sciences (NCATS), 2011).
Among all 340,000 compounds or so, about 170 (0.05%) were called active. The inconclusive results got no clear call from the source; some entries with a clear call stand among them for comparison. Calls follow the shape of the dose curve; as a rule, active = well fitted inhibition curve with a large enough effect in the signal ratio, with a control signal flat (not every such curve was filed as active); inconclusive = small, poorly fitted or top-dose-only effect, or effect the other way, or a change in a side signal; inactive = flat fitted curve, though single readings scatter; the % refers to the signal ratio. Potencies of inconclusive entries are doubtful fits and often do not repeat.

assay: qHTS Assay to Find Inhibitors of Chronic Active B-Cell Receptor Signaling; details: ABC-DLBCL IkBa-CBG/CBR reporter, luminescence ratio (green luciferase fused to IkBa over red control in TMD8 lymphoma cells), 4 h; activity change, negative = inhibition: at 46.1 µM (top of the series);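 as to activity change, negative = inhibition: plate controls were basal doxycycline-induced cells for no effect and cells given 10 µM MG132 for full effect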
Procedure, shortened: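 TMD8 human ABC-DLBCL cells with doxycycline-inducible IκBα–green luciferase fusion and unfused red luciferase, in 0.5% FBS medium; compounds up to 46 uM, 4 h at 37C. Green/red luminescence ratio, filter-overlap corrected, fitted to concentration-response curves.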
Potency is read from the fitted curve at half-maximal effect.

SMILES | activity change, negative = inhibition | Potency
N=C1C(c2nc3ccccc3[nH]2)=C(O)CN1NC(=O)COc1cccc(F)c1 | inactive | 
O=C(NCc1cccnc1)C(=O)NC1CCCCC1 | inconclusive: -24.6% | 
CCOC(=O)C1CCN(C(=O)COc2cccc3ccccc23)CC1 |  | inconclusive: 35.5 µM [rising, single point]
COc1cccc(C(=O)Nc2cnn(C(C)C)c2)c1 |  | inconclusive: 35.5 µM [falling, single point]
COc1cccc(CN2CCN(Cc3cccc(Br)c3)CC2)c1OC | inactive | 
CS(=O)(=O)c1nc(S(=O)(=O)c2ccc(Cl)cc2)c(N2CCC(O)CC2)s1 | inconclusive: -17.5% | 
COc1ccc(C(c2sc3nc(C)nn3c2O)N2CCC(O)CC2)cc1OC (stereo unspecified) | inactive | 
Cc1cc(Br)ccc1OCCCCNC(C)(C)C | inconclusive: -16.1% | 
CC(C)(C)c1ccc(CN(Cc2ccccc2)C(c2ccccn2)c2nnnn2C(C)(C)C)cc1 (stereo unspecified) | inconclusive: 20.4% | 
Cn1c(=O)c2[nH]c(N3CCCCC3)nc2n(C)c1=O | inactive | 
Cc1ccc(Cn2nnnc2CN2CCC(c3nc4ccc(Cl)cc4[nH]3)CC2)cc1 | inconclusive: 2.53% | 
COc1ccc(Oc2nccc(OC)c2C#N)cc1 | inconclusive: 0.846% | 
COc1ccc(/C=C(\C#N)C(=O)Nc2ccc3[nH]c(=O)[nH]c3c2)cc1 | inactive | 
C=CC[C@@H](CC(=O)N[C@H](CO)Cc1ccccc1)C(=O)N[C@H](COC(=O)[C@@H](CC=C)Cc1ccc(F)cc1)Cc1c[nH]c2ccccc12 | inconclusive: -16.8% | 
C/C(CC(=O)Nc1ccc([N+](=O)[O-])cc1)=N\NC(=O)c1ccccc1O | inconclusive: 474% | 
COc1ccc(-c2nc(CC(=O)Nc3cccc(S(=O)(=O)NC4=NCCC4)c3)cs2)cc1 | inconclusive: -6.05% | 
Cc1ccc(C)c(C(=O)CCC(=O)OCn2nnc3ccccc3c2=O)c1 | inconclusive: -0.483% | 
COc1cccc(NC(=O)[C@H](C)NC(=O)N2CCn3c2nc2ccccc23)c1 |  | inconclusive: 20 µM [falling, partial curve]
Cc1ccc(C)c(N2CCN(C(=O)c3ccc4nc(-c5ccco5)c(-c5ccco5)nc4c3)CC2)c1 | inactive | 
O=C(c1ccc(F)cc1)N1CCC(n2nnc3ccccc32)CC1 | inconclusive: 23.8% | 
CN(C)CCc1cc2c(c3c1ccc1ccccc13)OCO2 | inconclusive: -1.02% | 
O=C(NCc1ccco1)C1CC(c2c(Cl)cccc2Cl)=NO1 (stereo unspecified) | inactive | 
O=c1[nH]c(/C(Cl)=C/c2cc(Cl)ccc2O)nc2cc(Cl)ccc12 |  | inconclusive: 0.651 µM [rising, full curve]
CS(=O)(=O)N1CCSC1c1ccc(Br)cc1 (stereo unspecified) | inconclusive: -2.25% | 
COc1ccc(OC)c(NC(=O)COC(=O)c2ccc(OC)c(S(=O)(=O)N3CCOCC3)c2)c1 | inconclusive: -0.0319% | 
CC1=NNC(=O)c2ccccc2O1 | inconclusive: -1.28% | 

SMILES | activity change, negative = inhibition | Potency
C(=N\Nc1ncnc2sc3c(c12)CCC3)/c1ccncc1 |  | inconclusive: 17.8 µM [falling, single point]
CC(C)(C)c1nnc2sc(SCC(=O)c3ccc(Cl)cc3)nn2c1=O | inconclusive: 1.18% | 
CCCC(=O)Nc1c(-c2ccc(C)cc2)c(=O)c2ccccc2n1C | inconclusive: 0.619% | 
COc1ccccc1NC(=S)Nc1ccccn1 |  | inconclusive: 7.31 µM [rising, partial curve, poor fit]
O=C(NCc1nnc(SCc2ccc(F)cc2)n1-c1ccccc1)C12CC3CC(CC(C3)C1)C2 |  | inconclusive: 29.1 µM [falling, single point]
Cc1cccc(Nc2nc(C)nc3c2oc2ccccc23)c1 | inconclusive: -6.87% | 
COc1ccc(Nc2ccc(C(=O)O)cc2[N+](=O)[O-])cc1 | inconclusive: 4.09% | 
Cc1nc2nc(SCC(=O)NCCc3ccc(Cl)cc3)nn2c(C)c1Cc1ccccc1Cl | inconclusive: -8.9% | 
COc1cccc(/C=N/Nc2ccc([N+](=O)[O-])cc2)c1O | inconclusive: -18.5% | 
O=C(/C=C/c1ccc2ccccc2n1)N1CCN(S(=O)(=O)c2ccccc2F)CC1 |  | inconclusive: 10 µM [rising, partial curve, poor fit]
O=C(Nc1ccc2c(c1)C(=O)N(CC1CCCO1)C2=O)c1cccc(Br)c1 (stereo unspecified) | inactive | 
Nc1ccc(C(=O)OCC(=O)NC2CC2)cc1[N+](=O)[O-] | inconclusive: -23% | 
COc1cc(NC(=S)Nc2ccccn2)cc(OC)c1 |  | inconclusive: 29.1 µM [falling, single point]
O=C(/C(N=Nc1cccc(C(F)(F)F)c1)=C(/O)c1cccs1)C(F)(F)F |  | inconclusive: 0.398 µM [falling, full curve, poor fit]
CCN(CC)CCOC(=O)c1ccc(NC(=O)c2cccc(C)c2[N+](=O)[O-])cc1 |  | inconclusive: 15.8 µM [falling, partial curve, poor fit]
Cc1ccc(-c2nn(CCC(=O)O)cc2/C=C\C(=O)c2ccc(Br)cc2)cc1 |  | inconclusive: 35.5 µM [falling, partial curve, poor fit]
CCC(=O)N(CCC(c1ccco1)c1ccccc1OC)Cc1cccs1 (stereo unspecified) | inconclusive: 8.14% | 
O=S(=O)(c1ccc(NC(=S)N/N=C/c2ccc(O)c(O)c2)cc1)N1CCOCC1 | inactive | 
CO/N=C/C(NC(=O)c1ccc(C(F)(F)F)cc1)C(=O)OC (stereo unspecified) | inconclusive: -27.8% | 
CCCCC(=O)Nc1nnc(SCC(=O)NCC2CCCO2)s1 (stereo unspecified) | inconclusive: -1.43% | 
CC1(C)NC(=O)N(CCSc2ccc(Cl)cc2)C1=O | inconclusive: -31.5% | 
Cc1ccc(NC(=O)c2c(O)c3ccccc3n(C)c2=O)nc1 | inconclusive: -15.3% | 
Cc1ccc(-n2cc(CN3CCN(Cc4nccn4C)CC3)c(-c3cccc(C)c3)n2)cc1 |  | inconclusive: 35.5 µM [falling, partial curve, poor fit]
COC(=O)/C=C/c1ccc(-n2cncn2)cc1 | inconclusive: 14.5% | 
CCC1(C)CC(C(N)=S)CCO1 (stereo unspecified) | inconclusive: -1.64% | 

Part of the list above in order of number of heavy atoms, rising.
SMILES | activity change, negative = inhibition | Potency
CCC1(C)CC(C(N)=S)CCO1 (stereo unspecified) | inconclusive: -1.64% | 
CC1(C)NC(=O)N(CCSc2ccc(Cl)cc2)C1=O | inconclusive: -31.5% | 
COc1cc(NC(=S)Nc2ccccn2)cc(OC)c1 |  | inconclusive: 29.1 µM [falling, single point]
CO/N=C/C(NC(=O)c1ccc(C(F)(F)F)cc1)C(=O)OC (stereo unspecified) | inconclusive: -27.8% | 
CCCCC(=O)Nc1nnc(SCC(=O)NCC2CCCO2)s1 (stereo unspecified) | inconclusive: -1.43% | 
CC(C)(C)c1nnc2sc(SCC(=O)c3ccc(Cl)cc3)nn2c1=O | inconclusive: 1.18% | 
CCC(=O)N(CCC(c1ccco1)c1ccccc1OC)Cc1cccs1 (stereo unspecified) | inconclusive: 8.14% | 
Cc1ccc(-c2nn(CCC(=O)O)cc2/C=C\C(=O)c2ccc(Br)cc2)cc1 |  | inconclusive: 35.5 µM [falling, partial curve, poor fit]
O=S(=O)(c1ccc(NC(=S)N/N=C/c2ccc(O)c(O)c2)cc1)N1CCOCC1 | inactive | 
O=C(/C=C/c1ccc2ccccc2n1)N1CCN(S(=O)(=O)c2ccccc2F)CC1 |  | inconclusive: 10 µM [rising, partial curve, poor fit]
